Data published in PMC7889885.
No constants are given. Whether binding was seen depends on the method and setting. Binding seen in cells or lysates may run through a third protein. Some binding calls cover weakened binding; strength is not graded here. Where a sequence is shown, tags or fusion partners need not be part of it.

Legend:
[1] = molecular target: full-length hNKCC1 tagged with flag and YFP, A735C (human) (UniProt P55011); experiment: cross-linking; oxidative cross-linking of single-cysteine mutants in HEK293 cells with 1.5 mM cupric phenanthroline in regular medium for 10-40 min before lysis; blot with T4 antibody
[2] = molecular target: full-length hNKCC1 tagged with flag and YFP, A735C (human) (UniProt P55011); experiment: cross-linking; HEK293 cells treated with 1 mM I2 in regular medium for 2 min; quenched with EDTA + N-ethyl maleimide; blot
[3] = molecular target: full-length hNKCC1 tagged with flag and YFP, A735C (human) (UniProt P55011); experiment: cross-linking; HEK293 cells treated with 200 uM MTS-3-MTS (1,3-propanediyl bismethanethiosulfonate) in regular medium for 10 min; MTSET as control; blot
[4] = molecular target: full-length hNKCC1 tagged with flag and YFP, W732C in the C723S-C724V double mutation (human) (UniProt P55011); experiment: cross-linking; spontaneous disulfide cross-linking of single-cysteine mutants in HEK293 cells, without cupric phenanthroline; lysate on 7.5% Tris-glycine gel, blot with T4 antibody

binding [1]	binding [2]	binding [3]	binding [4]	Binder
binds	binds	binds	–	full-length hNKCC1 tagged with flag and YFP, A735C (protein, UniProt P55011 1-1212) MEPRPTAPSSGAPGLAGVGETPSAAALAAARVELPGTAVPSVPEDAAPASRDGGGVRDEGPAAAGDGLGRPLGPTPSQSRFQVDLVSENAGRAAAAAAAAAAAAAAAGAGAGAKQTPADGEASGESEPAKGSEEAKGRFRVNFVDPAASSSAEDSLSDAAGVGVDGPNVSFQNGGDTVLSEGSSLHSGGGGGSGHHQHYYYDTHTNTYYLRTFGHNTMDAVPRIDHYRHTAAQLGEKLLRPSLAELHDELEKEPFEDGFANGEESTPTRDAVVTYTAESKGVVKFGWIKGVLVRCMLNIWGVMLFIRLSWIVGQAGIGLSVLVIMMATVVTTITGLSTSAIATNGFVRGGGAYYLISRSLGPEFGGAIGLIFAFANAVAVAMYVVGFAETVVELLKEHSILMIDEINDIRIIGAITVVILLGISVAGMEWEAKAQIVLLVILLLAIGDFVIGTFIPLESKKPKGFFGYKSEIFNENFGPDFREEETFFSVFAIFFPAATGILAGANISGDLADPQSAIPKGTLLAILITTLVYVGIAVSVGSCVVRDATGNVNDTIVTELTNCTSAACKLNFDFSSCESSPCSYGLMNNFQVMSMVSGFTPLISAGIFSATLSSALASLVSAPKIFQALCKDNIYPAFQMFAKGYGKNNEPLRGYILTFLIALGFILIAELNVIAPIISNFFLASYALINFSVFHASLAKSPGWRPAFKYYNMWISLLGAILCCIVMFVINWWACLLTYVIVLGLYIYVTYKKPDVNWGSSTQALTYLNALQHSIRLSGVEDHVKNFRPQCLVMTGAPNSRPALLHLVHDFTKNVGLMICGHVHMGPRRQAMKEMSIDQAKYQRWLIKNKMKAFYAPVHADDLREGAQYLMQAAGLGRMKPNTLVLGFKKDWLQADMRDVDMYINLFHDAFDIQYGVVVIRLKEGLDISHLQGQEELLSSQEKSPGTKDVVVSVEYSKKSDLDTSKPLSEKPITHKVEEEDGKTATQPLLKKESKGPIVPLNVADQKLLEASTQFQKKQGKNTIDVWWLFDDGGLTLLIPYLLTTKKKWKDCKIRVFIGGKINRIDHDRRAMATLLSKFRIDFSDIMVLGDINTKPKKENIIAFEEIIEPYRLHEDDKEQDIADKMKEDEPWRITDNELELYKTKTYRQIRLNELLKEHSSTANIIVMSLPVARKGAVSSALYMAWLEALSKDLPPILLVRGNHQSVLTFYS
–	–	–	binds	full-length hNKCC1 tagged with flag and YFP, W732C in the C723S-C724V double mutation (protein, UniProt P55011 1-1212) MEPRPTAPSSGAPGLAGVGETPSAAALAAARVELPGTAVPSVPEDAAPASRDGGGVRDEGPAAAGDGLGRPLGPTPSQSRFQVDLVSENAGRAAAAAAAAAAAAAAAGAGAGAKQTPADGEASGESEPAKGSEEAKGRFRVNFVDPAASSSAEDSLSDAAGVGVDGPNVSFQNGGDTVLSEGSSLHSGGGGGSGHHQHYYYDTHTNTYYLRTFGHNTMDAVPRIDHYRHTAAQLGEKLLRPSLAELHDELEKEPFEDGFANGEESTPTRDAVVTYTAESKGVVKFGWIKGVLVRCMLNIWGVMLFIRLSWIVGQAGIGLSVLVIMMATVVTTITGLSTSAIATNGFVRGGGAYYLISRSLGPEFGGAIGLIFAFANAVAVAMYVVGFAETVVELLKEHSILMIDEINDIRIIGAITVVILLGISVAGMEWEAKAQIVLLVILLLAIGDFVIGTFIPLESKKPKGFFGYKSEIFNENFGPDFREEETFFSVFAIFFPAATGILAGANISGDLADPQSAIPKGTLLAILITTLVYVGIAVSVGSCVVRDATGNVNDTIVTELTNCTSAACKLNFDFSSCESSPCSYGLMNNFQVMSMVSGFTPLISAGIFSATLSSALASLVSAPKIFQALCKDNIYPAFQMFAKGYGKNNEPLRGYILTFLIALGFILIAELNVIAPIISNFFLASYALINFSVFHASLAKSPGWRPAFKYYNMWISLLGAILSVIVMFVINCWAALLTYVIVLGLYIYVTYKKPDVNWGSSTQALTYLNALQHSIRLSGVEDHVKNFRPQCLVMTGAPNSRPALLHLVHDFTKNVGLMICGHVHMGPRRQAMKEMSIDQAKYQRWLIKNKMKAFYAPVHADDLREGAQYLMQAAGLGRMKPNTLVLGFKKDWLQADMRDVDMYINLFHDAFDIQYGVVVIRLKEGLDISHLQGQEELLSSQEKSPGTKDVVVSVEYSKKSDLDTSKPLSEKPITHKVEEEDGKTATQPLLKKESKGPIVPLNVADQKLLEASTQFQKKQGKNTIDVWWLFDDGGLTLLIPYLLTTKKKWKDCKIRVFIGGKINRIDHDRRAMATLLSKFRIDFSDIMVLGDINTKPKKENIIAFEEIIEPYRLHEDDKEQDIADKMKEDEPWRITDNELELYKTKTYRQIRLNELLKEHSSTANIIVMSLPVARKGAVSSALYMAWLEALSKDLPPILLVRGNHQSVLTFYS
